Consider three compounds from PMC7915902, “Preclinical Evaluation of [^18F]FACH in Healthy Mice and Piglets: An ^18F-Labeled Ligand for Imaging of Monocarboxylate Transporters with PET” (International Journal of Molecular Sciences, 2021).

Data set [1] deals with MCTs. Kind of data set: Compartmental kinetic modelling of PET data in mice. Type of data set: in vivo, mouse. Particulars: after reference compound pre-treatment. As to the method: (§1) Table 4 includes the results of 1-tissue-compartment kinetic modelling (1-TCM) of [^18F]FACH in the kidney cortex and the liver of the control and pre-treated mouse groups (α-CCA-Na and reference compound). […] The BPND was estimated as the ratio of [VT(control)/VT(pre-treatment)] − 1.
(§2) Kinetic analysis of reconstructed datasets was performed with PMOD software. First, image derived arterial input functions (IDIFs) were obtained from the left ventricle in mice and from an artery close to the kidney in piglet studies. IDIFs were corrected for partial volume effects, plasma fraction from hematocrit values (individually determined for each piglet directly before PET imaging; for mice set to 0.51 according to CD-1 Mouse Hematology sheet from Charles River Laboratories, 2011) and radio-metabolites (measured for piglets, and set to zero for mice). Tri-exponential metabolite-corrected fitted input functions were used for one and two tissue compartment modelling (1-TCM/2-TCM) of time activity curves (TACs) in tissue volumes of interest (VOIs). For both species the specific blood volume was set to 0.15 mL g^−1 in the kidney cortex and 0.128 mL g^−1 in the liver, according to published values.

Data set [2] has as its system MCTs. Kind of data set: Autoradiographic saturation binding (homologous displacement) in mouse kidney cryosections. As to the method: Cryosections from the mouse kidney (10 µm) were cut on a microtome (Microm HM560, Thermo Scientific Microm, Fisher Scientific GmbH, Schwerte, Germany), mounted on glass slides (SuperFrost, Thermo Scientific Menzel, Fisher Scientific GmbH), dried for two hours at room temperature, and stored at −25 °C. Before the binding experiment, the tissue slices were dried under a stream of cold air, pre-incubated with PBS (pH 7.4) for 15 min at room temperature and dried again before incubation with PBS containing [^18F]FACH (1.2 nM) without (total binding) and with different concentrations of FACH-Na (10 µM–0.1 nM; homologous competition) for 60 min. Specific binding to MCTs of [^18F]FACH in cryosections of mouse kidney was determined after co-incubation of 1 nM [^18F]FACH with vehicle or 300 nM α-CCa-Na or 300 nM reference compound (homologous competition).
The incubation was terminated by washing with ice-cold buffer (50 mM TRIS-HCl, pH 7.4) twice for two minutes followed by dipping in ice-cold demineralized water for 5 s and drying under a stream of cold air. The dried sections along with activity standards (1 µL aliquots of different dilutions of the incubation solution dried on microscopic slides) were exposed to phosphor imaging plates (FujiFilm Co., Tokyo, Japan) transferred after 120 min to a phosphor imager (HD-CR 35 Bio; Dürr NDT GmbH & Co. KG, Bietigheim-Bissingen, Germany). Regions of interest (ROIs) were drawn manually or automatically on the tissue slices or standard spots, and the pixelwise results converted to Bq/mg wet weight. Non-linear regression analysis was performed with GraphPad Prism (v.3.0 GraphPad Software, San Diego, CA, USA). KD and Bmax values were calculated by the simplified Cheng and Prusoff equation (http://www3.uah.es/farmamol/Public/GraphPad/radiolig.htm, accessed on 5 February 2021):(1) KD=Ki=IC50−Radioligand (M) (2) Bmax=Top−Bottom/Radioligand (M)/(KD+Radioligand (M))

Data set [3] concerns MCTs. Kind of data set: Compartmental kinetic modelling of PET data in piglets. Type of data set: in vivo, piglet. Here is the method:
as §1, §2

For the compound `CCCN(CCCF)c1ccc(/C=C(\C#N)C(=O)[O-])c(OC)c1.[Na+]` [FACH-Na], in data set [1], the “increase of k2 of [18F]FACH in kidney cortex” value is on record as “more than 30 fold”.
Turning to `CCCN(CCC[18F])c1ccc(/C=C(\C#N)C(=O)O)c(OC)c1` [[^18F]FACH, (E)-2-cyano-3-{4-[(3-[^18F]fluoropropyl)(propyl)amino]-2-methoxyphenyl}acrylic acid], the Bmax in data set [2] (mouse kidney cortex (Co) cryosections) worked out at 6.0 pmol/mg wet weight; in data set [2] (mouse kidney inner medulla (IM) cryosections), 2.4 pmol/mg wet weight; in data set [2] (mouse kidney outer medulla (OM) cryosections) it was 5.4 pmol/mg wet weight. The “VT in piglet kidney cortex higher than in mice” value in data set [3] (kidney cortex, piglets vs mice) is on record as “approximately 25%”.
With `N#CC(=Cc1ccc(O)cc1)C(=O)[O-].[Na+]` [α-CCA-Na, reference compound], in data set [3] (piglets, after α-CCA-Na pre-treatment), the “increase of k2 of [18F]FACH in kidney cortex” value came out at 2.8 fold.
